Part of at least one peptide drawing is inferred or uncertain, most often the ends. No end group written: not given here.
System: A549 epithelial cells
Experiment: Human Operon arrays (PRHU04-S1) of A549 cells treated with peptide alone (Tables 31-37, 53)
Conditions: peptide 50 μg/ml, 4 h

RAAFKWAWAWWRRK [ID 23]
ID#:ctrl intensity ratio, AB010962 matrix metalloproteinase: 10.9
ID#:ctrl intensity ratio, AB033063 unknown: 7.2
ID#:ctrl intensity ratio, AB033080 cell cycle progression 8 protein: 2.2
ID#:ctrl intensity ratio, AB037786 unknown: 2.2
ID#:ctrl intensity ratio, AC007059 unknown: 2.6
ID#:ctrl intensity ratio, AF023466 putative glycine-N-acyltransferase: 10.1
ID#:ctrl intensity ratio, AF030555 fatty-acid-Coenzyme A ligase: 3.0
ID#:ctrl intensity ratio, AF050078 growth arrest specific 11: 2.6
ID#:ctrl intensity ratio, AF052116 unknown: 6.9
ID#:ctrl intensity ratio, AF064493 LIM binding domain 2: 8.5
ID#:ctrl intensity ratio, AF144412 lens epithelial cell protein: 16.2
ID#:ctrl intensity ratio, AF181286 unknown: 5.9
ID#:ctrl intensity ratio, AJ272208 IL-1R accessory protein-like 2: 9.8
ID#:ctrl intensity ratio, AJ272265 secreted phosphoprotein: 18.8
ID#:ctrl intensity ratio, AJ275355 unknown: 5.1
ID#:ctrl intensity ratio, AK001024 guanine nucleotide-binding protein: 7.6
ID#:ctrl intensity ratio, AK001244 unknown: 3.9
ID#:ctrl intensity ratio, AK001856 unknown: 2.9
ID#:ctrl intensity ratio, AL022723 MHC, class I, F: 3.3
ID#:ctrl intensity ratio, AL049423 unknown: 2.9
ID#:ctrl intensity ratio, AL050125 unknown: 18.7
ID#:ctrl intensity ratio, AL050201 unknown: 3.0
ID#:ctrl intensity ratio, AL080107 unknown: 5.4
ID#:ctrl intensity ratio, AL096729 unknown: 6.3
ID#:ctrl intensity ratio, AL109792 unknown: 8.7
ID#:ctrl intensity ratio, AL117457 cofilin 2: 7.4
ID#:ctrl intensity ratio, AL117567 DKFZP566O084 protein: 5.7
ID#:ctrl intensity ratio, AL133602 unknown: 4.1
ID#:ctrl intensity ratio, AL137362 unknown: 9.3
ID#:ctrl intensity ratio, AL137489 unknown: 2.5
ID#:ctrl intensity ratio, D38449 putative G protein coupled receptor: 4.8
ID#:ctrl intensity ratio, J00210 interferon alpha 13: 11.0
ID#:ctrl intensity ratio, J03068 N-acylaminoacyl-peptide hydrolase: 3.0
ID#:ctrl intensity ratio, L13720 growth arrest-specific 6: 3.9
ID#:ctrl intensity ratio, L22569 cathepsin B: 13.1
ID#:ctrl intensity ratio, L40933 phosphoglucomutase 5: 8.5
ID#:ctrl intensity ratio, M27190 regenerating islet-derived 1 alpha: 5.8
ID#:ctrl intensity ratio, M33906 MHC class II, DQ alpha 1: 7.5
ID#:ctrl intensity ratio, M37238 phospholipase C, gamma 2: 2.9
ID#:ctrl intensity ratio, M81933 cell division cycle 25A: 4.8
ID#:ctrl intensity ratio, NM_001756 corticosteroid binding globulin: 10.3
ID#:ctrl intensity ratio, NM_006963 zinc finger protein: 17.2
ID#:ctrl intensity ratio, NM_014099 PRO1768 protein: 19.5
ID#:ctrl intensity ratio, S70348 Integrin beta 3: 2.6
ID#:ctrl intensity ratio, U27655 regulator of G-protein signaling: 4.2
ID#:ctrl intensity ratio, U60179 growth hormone receptor: 8.0
ID#:ctrl intensity ratio, U80770 unknown: 7.0
ID#:ctrl intensity ratio, U86529 glutathione S-transferase zeta 1: 9.3
ID#:ctrl intensity ratio, U92981 unknown: 5.4
ID#:ctrl intensity ratio, X05323 unknown: 21.5
ID#:ctrl intensity ratio, X54131 protein tyrosine phosphatase, receptor type,: 5.6
ID#:ctrl intensity ratio, X66403 cholinergic receptor: 5.1
ID#:ctrl intensity ratio, X67734 contactin 2: 7.9
ID#:ctrl intensity ratio, X68879 empty spiracles homolog 1: 5.6
ID#:ctrl intensity ratio, X73113 myosin-binding protein C: 6.7
ID#:ctrl intensity ratio, X84003 TATA box binding protein: 18.0
ID#:ctrl intensity ratio, AL031121 unknown (Formula C peptides): 3.0
ID#:ctrl intensity ratio, NM_012450 sulfate transport 1 (Formula C peptides): 4.6
ID#:ctrl intensity ratio, U21931 fructose-bisphosphatase 1 (Formula C peptides): 8.4
